{
  "source": "patent US12214059B2",
  "about": "“Cleavable radioligands for targeting cell surface receptors and uses thereof” (Full-Life Te[…] Limited, priority 2021, dated 2025)",
  "system": "PC-3 PIP tumor-bearing mice",
  "experiment": "Biodistribution study in SCID mice bearing PC3-PIP tumor",
  "assay_type": "in vivo, mouse",
  "conditions": "24 h or 96 h post dosing, I-2 vs I-3, I-21 vs I-18",
  "method": "Biodistribution Study in SCID Mice Bearing PC3-PIP Tumor\nSevere combined immunodeficient (ICR-SCID) mice from the Institute of Cancer Research (Taconic Farms, Germantown, NY) were utilized for these studies. […] These mice received bilateral subcutaneous rear flank injections of approximately 10×10^6 PC-3 PIP cells (prostate cancer cell PC-3 stably expressing human PSMA) suspended in 100 μL of 0.9% NaCl. […] The tissues and organs were weighed, counted in a PerkinElmer Wizard 3 automatic γ counter, and the percent injected dose (% ID) and % ID/g of each organ or tissue were calculated, as shown in Tables 5-24 and FIG. 1 and FIG. 2.",
  "note": "Some of these results come from one statement about several compounds together.",
  "data": [
    {"smiles": "O=C(O)CC[C@H](NC(=O)N[C@@H](CCCCNC(=O)[C@H](Cc1ccc2ccccc2c1)NC(=O)[C@H]1CC[C@H](CNC(=O)[C@H](CCCCNC(=O)CN2CCN(CC(=O)O)CCN(CC(=O)O)CCN(CC(=O)O)CC2)NC(=O)CCCOC(=O)CNC(=O)[C@H](CCC(=O)O)NC(=O)CCCc2ccc(I)cc2)CC1)C(=O)O)C(=O)O", "note": "[Example I-2, 4pIBA-Glu-ESL1-Lys(DOTA)-Trx-2NaI-eKuE]", "values": [
      {"measurement": "increase of tumor to non-tumor ratio", "value": "2-8 fold"}
    ]}
  ]
}
